Reference: PubChem BioAssay AID652163 (Broad Institute, 2013)
“And” between values parts separate entries of the source, which are not always exact repeats. Equal values may be shown once. Out of some 360,000 compounds screened, about 500 (0.14%) were called active. The inconclusive results got no clear call from the source; some entries with a clear call stand among them for comparison.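 The calls were made as follows: active = mean inhibition of at least 70% across replicates, with every replicate also reaching that level; inconclusive = mean inhibition reaches 70% but some replicates fall short; inactive = mean inhibition below 70%.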

By UniProt entry, the sequences of proteins in these tests, tags left out. Where a name states a change or a piece, a line headed by the entry shows the natural chain unless it says otherwise.
UniProt P26447: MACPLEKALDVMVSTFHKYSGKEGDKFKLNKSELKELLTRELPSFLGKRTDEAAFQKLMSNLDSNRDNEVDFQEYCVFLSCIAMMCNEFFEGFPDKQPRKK

The molecules below were run against Protein S100-A4 (Homo sapiens) (UniProt P26447) (assay: inhibitors of S100A4-myosin IIA peptide binding, primary screen, biochemical, fluorescence polarization, TAMRA-MyoIIA peptide (AID 652163)). Details: at 10.7 µM, hits give high values.
How it was run: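 System – human S100A4 monomer protein, biochemical binding assay · Buffer or medium – Calcium-containing HEPES buffer, pH 7.2 · Timing – 5 min between mix addition and reading · Also added – TAMRA-labelled myosin IIA heavy-chain peptide probe, 5 nM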

SMILES	inhibition
O=C(CN1CCc2ccccc2C1)Nc1cccc(S(=O)(=O)N2CCOCC2)c1	inconclusive: 84.3%
COc1ccccc1S(=O)(=O)N[C@@H]1CC[C@H](CC(=O)N2CCCCC2)O[C@H]1CO	inconclusive: 70%
CC(C)c1cn(CC[C@@H]2CC[C@@H](NC(=O)Nc3cc(Cl)cc(Cl)c3)[C@H](CO)O2)nn1	inconclusive: 113%
O=C(NCCc1ccccc1)/C(=C\c1ccc([N+](=O)[O-])cc1)NC(=O)c1ccco1	inconclusive: 101%
COc1ccc2oc(C(=O)OCc3nnc(-c4ccccc4)o3)c(C)c2c1	inconclusive: 70.7%
CCCN1[C@H](C(=O)N2CCCCC2)[C@@H](CO)[C@@H]2Cn3c(ccc(-c4ccccc4F)c3=O)[C@@H]21	active: 89.8%
CN1C(=O)c2cc(NC(=O)c3cccs3)ccc2OC[C@H]2O[C@@H](CC(=O)Nc3ccc4c(c3)COC4)CC[C@@H]21	inactive: -6.62%
O=C(CSc1n[nH]c(-c2ccccn2)n1)Nc1ccc(Cl)cc1	inactive: 0.017%
Cc1c(NC(=S)N/C(=N/S(=O)(=O)c2ccccc2)c2ccccc2)c(=O)n(-c2ccccc2)n1C	inactive: 0.491%
COc1ccc(NC(=O)[C@@H](NC(N)=O)C(C)C)cc1Cl	inactive: 0.574%
Cc1ccc(S(=O)(=O)N(C)C[C@H]2Oc3ccc(NC(=O)Cn4cnnn4)cc3C(=O)N([C@H](C)CO)C[C@@H]2C)cc1	inconclusive: 77.2%
COc1cc(N(C)C)ccc1C=c1c2ccccc2n2c1cc(-c1ccccc1)[n+]2C	inconclusive: 70.5%
O=C(C[C@@H]1CC[C@@H](NC(=O)Cc2cccnc2)[C@H](CO)O1)Nc1ccc(-c2ccccc2)cc1	active: 127%
CCCNC(=O)C[C@@H]1CC[C@H]2[C@@H](COc3ccc(NC(=O)Nc4cccc(C)c4)cc3C(=O)N2C)O1	inconclusive: 79.9%
C[C@H](CO)N1C[C@H](C)[C@H](CN(C)C(=O)CN(C)C)Oc2cc(-c3ccncc3)ccc2S1(=O)=O	inconclusive: 93.8%
Nc1cccc2c(=O)c3ccccc3[nH]c12	inactive: -1.79%
CCNC(=O)C[C@@H]1C=C[C@@H](NC(=O)NC2CCCCC2)[C@H](CO)O1	inconclusive: 71.2%
CCc1ccc(-c2cc(C(=O)N/N=C/c3ccccn3)[nH]n2)cc1	inactive: 1.28%
Cc1ccc(-c2csc3ncnc(SCC(N)=O)c23)cc1	inactive: -6.07%
O=C(N[C@H]1CC[C@H](CCNC(=O)C2CCC2)O[C@@H]1CO)c1ccccn1	inactive: 24.3%
Cc1ccccc1CNC(=O)c1ccccc1NS(C)(=O)=O	inactive: -8.37%
CCN1CCN(S(=O)(=O)c2ccc(Cl)c(C(=O)N(C)Cc3ccccc3)c2)CC1	inconclusive: 90.2%
CO[C@H]1CC[C@H]2CCN(C)C(=O)[C@@H](C)[C@H](OC)CN(C)C(=O)c3cc(C#N)ccc3OC[C@H]1O2	active: 97.9%
C[C@H](CO)N1C[C@H](C)[C@@H](CN(C)C(=O)CN(C)C)Oc2ncc(C#Cc3ccncc3)cc2C1=O	inactive: -2.76%
O=C(C[C@H]1CC[C@H]2[C@@H](COC[C@@H](O)CN2CC2CCCC2)O1)NCC1CC1	inconclusive: 88.6%

SMILES	inhibition
CCCCCCCN1C(Nc2ccccc2)=NC[C@@H]1Cc1ccccc1	inactive: -1.57%
C[C@@H]1CN([C@H](C)CO)S(=O)(=O)c2ccc(C3=CCCCC3)cc2O[C@@H]1CN(C)Cc1cncnc1	active: 107%
CCOc1ccc(/C=N/NC(=O)c2ccccc2C)cc1CN1CC2CC(C1)c1cccc(=O)n1C2 (stereo not drawn)	active: 93.8%
Cc1noc(C)c1S(=O)(=O)N(C)C[C@H]1Oc2ccc(NC(=O)C3CC3)cc2CC(=O)N([C@@H](C)CO)C[C@H]1C	inconclusive: 77.6%
CN(C)CC(=O)N[C@@H]1CC[C@H](CC(=O)NCc2ccc(Cl)cc2)O[C@H]1CO	inconclusive: 73.6%
O=C(CCc1ccccc1Cl)NC1CCCN(c2ccc(C(F)(F)F)cn2)C1 (stereo not drawn)	active: 179%
COc1ccccc1-c1ccc2c(c1)O[C@H](CN(C)C(C)=O)[C@@H](C)CN([C@@H](C)CO)S2(=O)=O	active: 123%
Cc1occc1C(=O)NNC(=O)c1ccccc1[N+](=O)[O-]	inconclusive: 124%
O=C(C1CC1)N1C[C@H]2[C@@H](c3ccccc31)[C@H](CO)N2C(=O)c1ccccc1F	inconclusive: 71.2%
COc1ccc(S(=O)(=O)Nc2cccc3c2O[C@H](CN(C)C)[C@H](C)CN([C@@H](C)CO)C3=O)cc1	inactive: 7.53%
C=CCn1c(SCC(=O)c2ccc(O)c(O)c2)nnc1-c1ccc(OC)cc1	inactive: 3.55%
COc1cc2[nH]c(C)c(-c3ccccc3)c(=O)c2cc1Cl	inconclusive: 96.7%
Oc1cc(O)c(CN2CCOCC2)cc1CN1CCOCC1	inactive: -2.87%
C[C@@H]1CN([C@@H](C)CO)C(=O)c2cc(-c3cccnc3)cnc2O[C@H]1CN(C)C(=O)C1CCOCC1	inconclusive: 96.1%
CC1CCN(C(=O)c2[nH]cnc2C(=O)N[C@@H](C)C(=O)OCc2ccccc2)CC1	active: 138%
COc1ccc(NC(=O)N[C@H]2CC[C@H](CCNS(=O)(=O)c3cccc(Cl)c3)O[C@@H]2CO)cc1	inconclusive: 72.3%
O=C(CN1CCN(S(=O)(=O)c2ccc(F)cc2)CC1)NC1CC1	inconclusive: 110%
Cc1noc(C)c1NC(=O)N(C)C[C@H]1Oc2ccc(NC(=O)NC3CCCCC3)cc2C(=O)N([C@@H](C)CO)C[C@H]1C	inconclusive: 78.8%
COc1ccc(S(=O)(=O)Nc2cccc3c2O[C@@H](CN(C)C(=O)Nc2c(C)noc2C)[C@@H](C)CN([C@@H](C)CO)C3=O)cc1	inconclusive: 75.7%
CCCCCOc1ccc(C(=O)Nc2ccc(N3CCOCC3)cc2N2CCOCC2)cc1	inactive: 1.54%
CN(C)CC1CCC/C(=C\c2ccc(OC(=O)c3ccc(Cl)cc3)cc2)C1=O (stereo not drawn)	inconclusive: 126%
COCC(=O)Nc1ccc2c(c1)C(=O)N(C)C[C@@H](OC)[C@H](C)CN(CC1CC1)[C@@H](C)CO2	inactive: -4.14%
O=C(NCCN=C1NS(=O)(=O)c2ccccc21)c1ccco1	inconclusive: 156%
O=C(Nc1ccccc1Oc1ccccc1)[C@@H]1O[C@H](CO)[C@H](O)[C@H](O)[C@H]1O	inconclusive: 73.4%
Cc1ccc2c(c1)C1CN(C)CCC1N2S(=O)(=O)c1cccc(C(F)(F)F)c1 (stereo not drawn)	inactive: -5.89%

In another format: entries from further up

| SMILES | inhibition |
| --- | --- |
| C[C@@H]1CN([C@@H](C)CO)C(=O)c2cc(-c3cccnc3)cnc2O[C@H]1CN(C)C(=O)C1CCOCC1 | inconclusive: 96.1% |
| CC1CCN(C(=O)c2[nH]cnc2C(=O)N[C@@H](C)C(=O)OCc2ccccc2)CC1 | active: 138% |
| COc1ccc(NC(=O)N[C@H]2CC[C@H](CCNS(=O)(=O)c3cccc(Cl)c3)O[C@@H]2CO)cc1 | inconclusive: 72.3% |
| O=C(CN1CCN(S(=O)(=O)c2ccc(F)cc2)CC1)NC1CC1 | inconclusive: 110% |
| Cc1noc(C)c1NC(=O)N(C)C[C@H]1Oc2ccc(NC(=O)NC3CCCCC3)cc2C(=O)N([C@@H](C)CO)C[C@H]1C | inconclusive: 78.8% |

Going on with the list:

SMILES	inhibition
O=C(N[C@@H]1CC[C@H](CCn2cc(Cc3ccccc3)nn2)O[C@H]1CO)c1cnccn1	inconclusive: 115%
COCC(=O)N1CC[C@H]2[C@@H]1c1cc(-c3cccc(F)c3)ccc1N(C)[C@H]2CO	inactive: -3.99%
CCCCn1c(O)c(/C=C2\C=Nc3ccccc32)c(=O)[nH]c1=O	active: 80.6%
O=C(NC1CCCCC1)N1C[C@@H]2N[C@H](C1)C2c1ccc(-c2cccc(F)c2)cc1 (stereo partly drawn)	inactive: -0.143% and inactive: 3.36%
Cc1cccc([N+](=O)[O-])c1C(=O)O	inconclusive: 97%
Cn1cnc(CCNC(=O)C[C@@H]2CC[C@H]3[C@@H](COC[C@@H](O)CN3C(=O)C3CC3)O2)c1	active: 81.5%
CO[C@H]1CN(C)C(=O)c2ccc(NC(=O)NC(C)C)cc2OC[C@H](C)N(Cc2ccccc2)C[C@@H]1C	inactive: -9.98%
COc1ccc(CN(C)C[C@@H]2Oc3ccc(NC(=O)Cc4ccccc4)cc3CC(=O)N([C@@H](C)CO)C[C@H]2C)cc1	active: 83.6%
COc1ccc(CCN(C)C(=O)c2cnc(C)cn2)cc1OC	inactive: 7.99%
CC(/C=C1\SC(=S)N(CCC(=O)Nc2ccccc2O)C1=O)=C\c1ccccc1	inconclusive: 116%
CO[C@H]1CN(C)C(=O)c2cc(NS(=O)(=O)c3ccccc3C)ccc2OC[C@H](C)N(C)C[C@H]1C	inconclusive: 74.3%
O=C(C1CCC1)N1CCCCN2[C@H](C1)[C@H](c1ccc(-c3cccc(F)c3)cc1)[C@@H]2CO	inconclusive: 82.4%
CCCC(=O)Nc1ccc2c(c1)OC[C@@H](C)N(Cc1ccc(-c3ccccn3)cc1)C[C@H](C)[C@H](OC)CN(C)C2=O	active: 109%
Cc1ccc(Cc2c(C(C)(C)C)nc3ccc(Br)cn23)cc1	inconclusive: 73.1%
C=CCNC(=O)[C@H]1[C@@H]2C(=O)O[C@@H](c3ccccc3)[C@@H](c3ccccc3)N2[C@@H](c2ccc(O)cc2)[C@]12C(=O)N(C(=O)OCCOC)c1ccc(C#CCC(C(=O)OC)C(=O)OC)cc12	inconclusive: 101%
CCOc1cc(CNc2ccc(Br)cc2)cc(Br)c1OCC(=O)NC(C)(C)C	inconclusive: 80.1%
O=C1COc2ccc(C(=O)COc3ccc([N+](=O)[O-])cc3)cc2N1	inactive: -0.987%
N#C/C(=C(/O)c1ccc(Cl)c([N+](=O)[O-])c1)c1nc2ccccc2[nH]1	inconclusive: 80.5%
COCC#Cc1cnc2c(c1)C(=O)N([C@H](C)CO)C[C@H](C)[C@H](CN(C)C(=O)C1CCC1)O2	active: 133%
O=C(c1cccs1)N1N=C(c2ccccc2)CC1c1ccccc1O (stereo not drawn)	inactive: 2.49%
O=C(Nc1ccccc1F)N1C[C@@H]2[C@H](c3ccccc31)[C@@H](CO)N2C(=O)C1CCCC1	active: 129%
Cc1csc(C(C#N)C(=O)c2cc3ccccc3o2)n1 (stereo not drawn)	inconclusive: 92%
N#C[C@@H]1[C@H](c2ccccc2C2=CCCCC2)[C@@H](CO)N1S(=O)(=O)c1cccc(F)c1	active: 124%
